Results reported in the supplement of paper PMC12889115.
The list shows a part of the results. These are raw signals, not scaled to a control.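 First-pass screen: polymyxin B was added at a level that permeabilizes the Salmonella outer membrane while sparing the inner membrane. DMSO wells, with and without polymyxin B, defined maximum growth. Because plates differed from one another, each plate's data were ranked separately and the compounds with the lowest OD600 were carried forward as hits.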

Tested on: Salmonella enterica serovar Typhimurium SL1344
Test: bacterial growth OD600 after 18 h with compound and polymyxin B; higher = more bacterial growth (less inhibition)
Conditions: 50 µM, Mueller-Hinton broth

Structure (SMILES): CC1(C)Cc2c(cnn2-c2ccccc2)C(NC(=O)/C=C/c2c[nH]cn2)C1 (centres undefined)
- bacterial growth OD600 (polymyxin B 1 µg/mL): 0.922

Structure (SMILES): O=C(C(=O)N1CCC(C2CCN(CCc3ccccc3)C2)CC1)c1ccccc1 (centres undefined)
- bacterial growth OD600 (polymyxin B 0.75 µg/mL): 0.797

Structure (SMILES): COc1cccc(CN2CCOc3ccc(C(C)(O)COc4ccccc4)cc3C2)c1 (centres undefined)
- bacterial growth OD600 (polymyxin B 0.75 µg/mL): 0.422

Structure (SMILES): COc1ccc(C(=O)NCc2cccc(C)c2)cc1OC1CCN(C(C)=O)CC1
- bacterial growth OD600 (polymyxin B 1 µg/mL): 1.08

Structure (SMILES): COc1cc(CC2(CCC(=O)NCCCn3nnc4ccccc43)CCC(=O)N2)ccc1F (centres undefined)
- bacterial growth OD600 (polymyxin B 0.75 µg/mL): 0.984

Structure (SMILES): O=C(C1CC1)N1CCC(Oc2ccc(C(=O)N3CCCCO3)cc2)CC1
- bacterial growth OD600 (polymyxin B 1 µg/mL): 1.02

Structure (SMILES): c1cc(CN(CCN2CCCCC2)CC2CCCN(C3CCCC3)C2)c2nonc2c1 (centres undefined)
- bacterial growth OD600 (polymyxin B 1 µg/mL): 0.958

Structure (SMILES): COCCN1CCN(C(=O)CC(c2ccccc2)c2ccc(Cl)cc2)CC1 (centres undefined)
- bacterial growth OD600 (polymyxin B 1 µg/mL): 0.896

Structure (SMILES): CC(C)=CCN1CCN(Cc2cccc(F)c2)CC1CCO (centres undefined)
- bacterial growth OD600 (polymyxin B 1 µg/mL): 0.922

Structure (SMILES): CC#CCN1C(=O)NC(CCc2ccccc2)(C2CCN(Cc3ccccc3-c3ccco3)CC2)C1=O (centres undefined)
- bacterial growth OD600 (polymyxin B 0.75 µg/mL): 0.796

Structure (SMILES): COc1ccc(-n2cc(CNC(C)C)c(-c3ccccc3Cl)n2)cc1
- bacterial growth OD600 (polymyxin B 1 µg/mL): 0.831

Structure (SMILES): CN(CCc1ccccc1)C(=O)C1CCCN(C2CCN(C(=O)C3CC3)CC2)C1 (centres undefined)
- bacterial growth OD600 (polymyxin B 0.75 µg/mL): 0.744

Structure (SMILES): CCOC(=O)C1(CCCc2ccccc2)CCN(Cc2ccncc2)CC1
- bacterial growth OD600 (polymyxin B 1 µg/mL): 0.013

Structure (SMILES): CN1C(=O)CC(CC(=O)N2CCC(c3ccc(F)cc3)C2)(c2ccc(-c3ccccc3)cc2)C1=O (centres undefined)
- bacterial growth OD600 (polymyxin B 0.75 µg/mL): 0.012

Structure (SMILES): COc1cc(CN2Cc3cc(C)ccc3OC(c3ccsc3)C2)cc(OC)c1OC (centres undefined)
- bacterial growth OD600 (polymyxin B 0.75 µg/mL): 0.04

Structure (SMILES): Cc1occc1C(=O)N(C)C(Cc1ccccc1F)C1CCN(C(=O)[C@H]2C[C@@H]3C=C[C@H]2C3)CC1 (some centres undefined)
- bacterial growth OD600 (polymyxin B 0.75 µg/mL): 0.005

Structure (SMILES): CCn1c(-c2ccccc2F)nc2cc(C(=O)N3CCC(OC)CC3)cc(NC(C)=O)c21
- bacterial growth OD600 (polymyxin B 0.75 µg/mL): 1.05

Structure (SMILES): COC(=O)CCC(=O)N1CCCC(C(=O)c2ccc(Oc3ccccc3)cc2)C1 (centres undefined)
- bacterial growth OD600 (polymyxin B 1 µg/mL): 0.662

Structure (SMILES): Cc1nc(N2CCCC(NCc3cccs3)CC2)nc2ccc(F)cc12 (centres undefined)
- bacterial growth OD600 (polymyxin B 0.75 µg/mL): 0.769
